# Reference: PubChem BioAssay AID493014 (National Center for Advancing Translational Sciences (NCATS), 2011)
# This is one part of the list. The main result of the screen is listed elsewhere. These columns were measured beside it and carry no call. Compounds called inactive in the main read-out are mostly missing here. The note in brackets gives the kind of curve behind each potency; many fits are weak.
# Assay: qHTS Assay to Find Inhibitors of Chronic Active B-Cell Receptor Signaling
# Details: ABC-DLBCL IkBa-CBG/CBR reporter, luminescence ratio (green luciferase fused to IkBa over red control in TMD8 lymphoma cells), 4 h
# Summary of the method: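 TMD8 ABC-DLBCL cells carrying doxycycline-inducible green luciferase fused to IkappaBalpha plus unfused red luciferase were exposed to compounds (up to 46 uM) for 4 hrs at 37C. Activity came from the overlap-corrected green/red luminescence ratio.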
# [1] = measured here: CBR red luminescence, cell number
# [2] = measured here: IkBa-CBG green luminescence
Compound,AC50 [1],AC50 [2]
CCOc1ccc(CCNC(=O)c2ccc3nc(N4CCOCC4)sc3c2)cc1OCC,"11.2 µM [rising, partial curve]",
Cc1ccc2nc(C)c(C(=O)N/N=C/c3cccs3)n2c1,"11.6 µM [rising, partial curve, poor fit]",
CCN(CC)S(=O)(=O)c1ccc(OC)c(NS(=O)(=O)c2ccc(F)cc2)c1,"3.98 µM [rising, single point]",
Cc1cc(NC(=O)NC(=O)c2ccccc2)no1,"5.62 µM [falling, partial curve, poor fit]",
Cc1cc(C)cc(N(C(=O)CNS(=O)(=O)c2ccccc2)C(C(=O)NCc2ccccc2)c2ccc(C)o2)c1 (configuration not stated),"29.1 µM [falling, single point]",
O=C(NNC(=O)c1cncc(Br)c1)c1ccncc1,"29.1 µM [falling, single point]",
COc1cccc(C(C[N+](=O)[O-])c2c(C)[nH]n(-c3ccccc3)c2=O)c1 (configuration not stated),"20 µM [rising, single point]",
CCCC1CC(C)(C(=O)CSc2n[nH]c(-c3ccccc3)n2)OC1=O (configuration not stated),"2.06 µM [rising, partial curve, poor fit]",
CCOC(=O)/C(C#N)=C1/SC(CCO)C(=O)N1c1ccccc1 (configuration not stated),"14.1 µM [falling, single point]",
Cc1c(CCC(=O)NCCC(=O)O)c(=O)oc2c(C)c3oc4c(c3cc12)CCCC4,"3.98 µM [rising, partial curve, poor fit]","3.55 µM [falling, full curve]"
NC(=S)n1[nH]c(-c2ccc([N+](=O)[O-])cc2)c(N=Nc2ccc(Cl)cc2)c1=O,,"8.91 µM [falling, partial curve]"
C=CCn1c(SCc2ccc(C(=O)Nc3ccccc3)cc2)nnc1-c1ccccc1,"4.47 µM [falling, partial curve, poor fit]",
CC(C)(C)OC(=O)N[C@H](/C=C/c1ccccc1)C(=O)OC(C)(C)C,"5.8 µM [rising, partial curve]",
O=C(/C=C/Nc1ccc(F)cc1)c1ccco1,"29.1 µM [falling, single point]",
Cc1ccc(-c2noc(CSc3nnc(-c4ccccc4)n3C)n2)cc1,"2.59 µM [rising, partial curve, poor fit]",
CC(C)Cc1cc(C(=O)Nc2ccc(Br)cc2)no1,"3.55 µM [falling, partial curve, poor fit]",
Nn1c(C2CCCCC2)nc2ccccc2c1=O,"12.6 µM [rising, single point]",
Cc1c(NC(=O)c2ccccc2N)cccc1C(=O)O,"22.4 µM [falling, single point]",
CCOC(=O)C1CCCN(C(=O)c2sc3nc(C)nc(N(CC)CC)c3c2C)C1 (configuration not stated),"16.4 µM [falling, single point]",
O=C(NC1CCCCC1)c1cnn2c(C(F)(F)F)cc(-c3ccco3)nc12,"4.47 µM [rising, full curve, poor fit]",

Compound,AC50 [1],AC50 [2]
CC(C)N(Cc1ccc(F)cc1)C(=O)c1cc2ccccc2oc1=O,"10 µM [rising, partial curve, poor fit]",
CCCc1cc(=O)oc2cc(C)cc(OCC(=O)Nc3ccc(CN4CCOCC4)cc3)c12,"4.47 µM [falling, partial curve, poor fit]",
CC1CCN(S(=O)(=O)c2ccc(C(=O)N3CCCCC3C(=O)O)cc2)CC1 (configuration not stated),"14.6 µM [rising, partial curve, poor fit]",
Cc1ccc2cccc(NC(=O)c3ccc(Br)o3)c2n1,"10 µM [rising, partial curve, poor fit]",
CCCCOc1ccc(-c2ncc(Cl)cn2)cc1,"0.366 µM [rising, full curve]",
COc1ccc(N2C(=O)c3ccccc3NC23CCCCC3)cc1,"35.5 µM [falling, single point]",
Cc1[nH]n(-c2ccccc2)c(=O)c1C(=O)Nc1ccccc1,"7.08 µM [falling, partial curve]",
CC(=O)NC(=C(Cl)Cl)S(=O)(=O)c1ccccc1,"35.5 µM [falling, single point]",
O=S(=O)(c1ccccc1)c1nc(-c2cccs2)oc1NCc1cccnc1,"29.1 µM [falling, single point]","20.6 µM [rising, partial curve, poor fit]"
COc1ccc(CCNc2oc(-c3ccc(OC)c(OC)c3)nc2P(=O)(OC)OC)cc1OC,,"20.6 µM [falling, partial curve]"
COc1ccc(C(=O)Nc2cccc(NC(=O)c3ccc(OC)c(OC)c3)n2)cc1OC,"10 µM [falling, partial curve, poor fit]",
COc1ccc(-n2nc3cc(C)c(N)cc3n2)cc1Cl,"1.12 µM [rising, full curve, poor fit]",
COc1ccc(NC(=O)/C(C#N)=C\c2cc(C)n(-c3ccc(Oc4ccc([N+](=O)[O-])cn4)cc3)c2C)cc1,"13 µM [falling, single point]",
Nc1nc(Br)c2c(F)cccc2c1-c1ccc(F)cc1,"11.2 µM [rising, partial curve]",
CC(=O)N1c2ccccc2C2(O)N=C(C)SC12 (configuration not stated),"6.51 µM [falling, partial curve, poor fit]",
COC(=O)CCC(=O)Nc1ccc(S(=O)(=O)N2CCCCCC2)cc1,"16.4 µM [falling, single point]",
COc1ccc(-n2c(SCc3cccnc3)nc3c(c2=O)SCC3)cc1OC,"0.398 µM [falling, full curve, poor fit]",
COc1cc2c(cc1OC)C(C)N(C(=O)c1cc3c(s1)-c1ccccc1OC3)CC2 (configuration not stated),"32.6 µM [falling, single point]",
O=C(Nc1ccc2oc(=O)ccc2c1)c1cc([N+](=O)[O-])ccc1N1CCOCC1,"7.08 µM [falling, full curve, poor fit]",
Cc1cc(O)c(C2=Nc3ccccc3SC(c3ccc(Cl)cc3)C2)c(=O)o1 (configuration not stated),"0.731 µM [falling, full curve, poor fit]",

# Three of the compounds above, with tabs.
Compound	AC50 [1]	AC50 [2]
CCOC(=O)/C(C#N)=C1/SC(CCO)C(=O)N1c1ccccc1 (configuration not stated)	14.1 µM [falling, single point]	
CC(C)Cc1cc(C(=O)Nc2ccc(Br)cc2)no1	3.55 µM [falling, partial curve, poor fit]	
COc1ccc(C(=O)Nc2cccc(NC(=O)c3ccc(OC)c(OC)c3)n2)cc1OC	10 µM [falling, partial curve, poor fit]	
